Laboratory results: US20070004616 (published 2007)

Assay: general procedure: Boc solid-phase peptide synthesis; MBHA; HBTU/DIEA
Conditions: whole synthesis, analytical HPLC

## (Aib^8,35)hGLP-1(7-36)NH2
  final HPLC purity: 98.6%
